Results are given in words; binding and its absence hold for the method and conditions named. For some of these results: A result given as binding can be weak or reduced; the word gives no strength.
What was measured:
[1] = target: IL-1R1 mutant 1 (rat residues at site 1, LSDIA); assay: Western blot of CHO conditioned medium
[2] = target: IL-1R1 mutant 2 (rat residues at site 2, VIDE); assay: Western blot of CHO conditioned medium
[3] = target: IL-1R1 mutant 10 (rat residues at site 10, TCFA); assay: Western blot of CHO conditioned medium, antibody at 0.5 ug/mL
[4] = target: IL-1R1 mutant 4 (rat residues at site 4, YSV); assay: as above

B1: anti-IL-1R1 monoclonal antibody 15C4 (antibody, V domains shown)
VH: EVQLMQSGAEVKKPGESLKISCKGSGYSFSFHWIAWVRQMPGKGLEWMGIIHPGASDTRYSPSFQGQVTISADNSNSATYLQWSSLKASDTAMYFCARQRELDYFDYWGQGTLVTVSS
VL: EIVLTQSPDFQSVTPKEKVTITCRASQSIGSSLHWYQQKPDQSPKLLIKYASQSFSGVPSRFSGSGSGTDFTLTINSLEAEDAAAYYCHQSSSLPLTFGGGTKVEIK
For B1, the binding [1] was “no binding (tested: 0.5 ug/mL)”, the binding [2] was “no binding (tested: 0.5 ug/mL)” and the binding [3] was “binds”. For the same binder, the binding [4] was “binds”.

— patent publication US20120269824A1
